The values below come from PMC6925130 (Scientific Reports, 2019).

The nature of this data set: general procedure: Fmoc solid-phase peptide synthesis; HATU/DIPEA. Particulars: whole synthesis.

Take HYNIC-L-P8RI: the “final HPLC purity” value (RP-HPLC, Kromasil C18) is recorded as 96.8%. For the same substance, the isolated yield (overall) is recorded as 55% overall yield.
